Results as given in the supplement of paper PMC10849652.
The other results are listed elsewhere or left out.

Chains of the proteins cited; added tags and fusions are not shown. Lines headed by an entry give the natural chain unless they say otherwise; changes in a name come on top.
UniProt Q5THJ4: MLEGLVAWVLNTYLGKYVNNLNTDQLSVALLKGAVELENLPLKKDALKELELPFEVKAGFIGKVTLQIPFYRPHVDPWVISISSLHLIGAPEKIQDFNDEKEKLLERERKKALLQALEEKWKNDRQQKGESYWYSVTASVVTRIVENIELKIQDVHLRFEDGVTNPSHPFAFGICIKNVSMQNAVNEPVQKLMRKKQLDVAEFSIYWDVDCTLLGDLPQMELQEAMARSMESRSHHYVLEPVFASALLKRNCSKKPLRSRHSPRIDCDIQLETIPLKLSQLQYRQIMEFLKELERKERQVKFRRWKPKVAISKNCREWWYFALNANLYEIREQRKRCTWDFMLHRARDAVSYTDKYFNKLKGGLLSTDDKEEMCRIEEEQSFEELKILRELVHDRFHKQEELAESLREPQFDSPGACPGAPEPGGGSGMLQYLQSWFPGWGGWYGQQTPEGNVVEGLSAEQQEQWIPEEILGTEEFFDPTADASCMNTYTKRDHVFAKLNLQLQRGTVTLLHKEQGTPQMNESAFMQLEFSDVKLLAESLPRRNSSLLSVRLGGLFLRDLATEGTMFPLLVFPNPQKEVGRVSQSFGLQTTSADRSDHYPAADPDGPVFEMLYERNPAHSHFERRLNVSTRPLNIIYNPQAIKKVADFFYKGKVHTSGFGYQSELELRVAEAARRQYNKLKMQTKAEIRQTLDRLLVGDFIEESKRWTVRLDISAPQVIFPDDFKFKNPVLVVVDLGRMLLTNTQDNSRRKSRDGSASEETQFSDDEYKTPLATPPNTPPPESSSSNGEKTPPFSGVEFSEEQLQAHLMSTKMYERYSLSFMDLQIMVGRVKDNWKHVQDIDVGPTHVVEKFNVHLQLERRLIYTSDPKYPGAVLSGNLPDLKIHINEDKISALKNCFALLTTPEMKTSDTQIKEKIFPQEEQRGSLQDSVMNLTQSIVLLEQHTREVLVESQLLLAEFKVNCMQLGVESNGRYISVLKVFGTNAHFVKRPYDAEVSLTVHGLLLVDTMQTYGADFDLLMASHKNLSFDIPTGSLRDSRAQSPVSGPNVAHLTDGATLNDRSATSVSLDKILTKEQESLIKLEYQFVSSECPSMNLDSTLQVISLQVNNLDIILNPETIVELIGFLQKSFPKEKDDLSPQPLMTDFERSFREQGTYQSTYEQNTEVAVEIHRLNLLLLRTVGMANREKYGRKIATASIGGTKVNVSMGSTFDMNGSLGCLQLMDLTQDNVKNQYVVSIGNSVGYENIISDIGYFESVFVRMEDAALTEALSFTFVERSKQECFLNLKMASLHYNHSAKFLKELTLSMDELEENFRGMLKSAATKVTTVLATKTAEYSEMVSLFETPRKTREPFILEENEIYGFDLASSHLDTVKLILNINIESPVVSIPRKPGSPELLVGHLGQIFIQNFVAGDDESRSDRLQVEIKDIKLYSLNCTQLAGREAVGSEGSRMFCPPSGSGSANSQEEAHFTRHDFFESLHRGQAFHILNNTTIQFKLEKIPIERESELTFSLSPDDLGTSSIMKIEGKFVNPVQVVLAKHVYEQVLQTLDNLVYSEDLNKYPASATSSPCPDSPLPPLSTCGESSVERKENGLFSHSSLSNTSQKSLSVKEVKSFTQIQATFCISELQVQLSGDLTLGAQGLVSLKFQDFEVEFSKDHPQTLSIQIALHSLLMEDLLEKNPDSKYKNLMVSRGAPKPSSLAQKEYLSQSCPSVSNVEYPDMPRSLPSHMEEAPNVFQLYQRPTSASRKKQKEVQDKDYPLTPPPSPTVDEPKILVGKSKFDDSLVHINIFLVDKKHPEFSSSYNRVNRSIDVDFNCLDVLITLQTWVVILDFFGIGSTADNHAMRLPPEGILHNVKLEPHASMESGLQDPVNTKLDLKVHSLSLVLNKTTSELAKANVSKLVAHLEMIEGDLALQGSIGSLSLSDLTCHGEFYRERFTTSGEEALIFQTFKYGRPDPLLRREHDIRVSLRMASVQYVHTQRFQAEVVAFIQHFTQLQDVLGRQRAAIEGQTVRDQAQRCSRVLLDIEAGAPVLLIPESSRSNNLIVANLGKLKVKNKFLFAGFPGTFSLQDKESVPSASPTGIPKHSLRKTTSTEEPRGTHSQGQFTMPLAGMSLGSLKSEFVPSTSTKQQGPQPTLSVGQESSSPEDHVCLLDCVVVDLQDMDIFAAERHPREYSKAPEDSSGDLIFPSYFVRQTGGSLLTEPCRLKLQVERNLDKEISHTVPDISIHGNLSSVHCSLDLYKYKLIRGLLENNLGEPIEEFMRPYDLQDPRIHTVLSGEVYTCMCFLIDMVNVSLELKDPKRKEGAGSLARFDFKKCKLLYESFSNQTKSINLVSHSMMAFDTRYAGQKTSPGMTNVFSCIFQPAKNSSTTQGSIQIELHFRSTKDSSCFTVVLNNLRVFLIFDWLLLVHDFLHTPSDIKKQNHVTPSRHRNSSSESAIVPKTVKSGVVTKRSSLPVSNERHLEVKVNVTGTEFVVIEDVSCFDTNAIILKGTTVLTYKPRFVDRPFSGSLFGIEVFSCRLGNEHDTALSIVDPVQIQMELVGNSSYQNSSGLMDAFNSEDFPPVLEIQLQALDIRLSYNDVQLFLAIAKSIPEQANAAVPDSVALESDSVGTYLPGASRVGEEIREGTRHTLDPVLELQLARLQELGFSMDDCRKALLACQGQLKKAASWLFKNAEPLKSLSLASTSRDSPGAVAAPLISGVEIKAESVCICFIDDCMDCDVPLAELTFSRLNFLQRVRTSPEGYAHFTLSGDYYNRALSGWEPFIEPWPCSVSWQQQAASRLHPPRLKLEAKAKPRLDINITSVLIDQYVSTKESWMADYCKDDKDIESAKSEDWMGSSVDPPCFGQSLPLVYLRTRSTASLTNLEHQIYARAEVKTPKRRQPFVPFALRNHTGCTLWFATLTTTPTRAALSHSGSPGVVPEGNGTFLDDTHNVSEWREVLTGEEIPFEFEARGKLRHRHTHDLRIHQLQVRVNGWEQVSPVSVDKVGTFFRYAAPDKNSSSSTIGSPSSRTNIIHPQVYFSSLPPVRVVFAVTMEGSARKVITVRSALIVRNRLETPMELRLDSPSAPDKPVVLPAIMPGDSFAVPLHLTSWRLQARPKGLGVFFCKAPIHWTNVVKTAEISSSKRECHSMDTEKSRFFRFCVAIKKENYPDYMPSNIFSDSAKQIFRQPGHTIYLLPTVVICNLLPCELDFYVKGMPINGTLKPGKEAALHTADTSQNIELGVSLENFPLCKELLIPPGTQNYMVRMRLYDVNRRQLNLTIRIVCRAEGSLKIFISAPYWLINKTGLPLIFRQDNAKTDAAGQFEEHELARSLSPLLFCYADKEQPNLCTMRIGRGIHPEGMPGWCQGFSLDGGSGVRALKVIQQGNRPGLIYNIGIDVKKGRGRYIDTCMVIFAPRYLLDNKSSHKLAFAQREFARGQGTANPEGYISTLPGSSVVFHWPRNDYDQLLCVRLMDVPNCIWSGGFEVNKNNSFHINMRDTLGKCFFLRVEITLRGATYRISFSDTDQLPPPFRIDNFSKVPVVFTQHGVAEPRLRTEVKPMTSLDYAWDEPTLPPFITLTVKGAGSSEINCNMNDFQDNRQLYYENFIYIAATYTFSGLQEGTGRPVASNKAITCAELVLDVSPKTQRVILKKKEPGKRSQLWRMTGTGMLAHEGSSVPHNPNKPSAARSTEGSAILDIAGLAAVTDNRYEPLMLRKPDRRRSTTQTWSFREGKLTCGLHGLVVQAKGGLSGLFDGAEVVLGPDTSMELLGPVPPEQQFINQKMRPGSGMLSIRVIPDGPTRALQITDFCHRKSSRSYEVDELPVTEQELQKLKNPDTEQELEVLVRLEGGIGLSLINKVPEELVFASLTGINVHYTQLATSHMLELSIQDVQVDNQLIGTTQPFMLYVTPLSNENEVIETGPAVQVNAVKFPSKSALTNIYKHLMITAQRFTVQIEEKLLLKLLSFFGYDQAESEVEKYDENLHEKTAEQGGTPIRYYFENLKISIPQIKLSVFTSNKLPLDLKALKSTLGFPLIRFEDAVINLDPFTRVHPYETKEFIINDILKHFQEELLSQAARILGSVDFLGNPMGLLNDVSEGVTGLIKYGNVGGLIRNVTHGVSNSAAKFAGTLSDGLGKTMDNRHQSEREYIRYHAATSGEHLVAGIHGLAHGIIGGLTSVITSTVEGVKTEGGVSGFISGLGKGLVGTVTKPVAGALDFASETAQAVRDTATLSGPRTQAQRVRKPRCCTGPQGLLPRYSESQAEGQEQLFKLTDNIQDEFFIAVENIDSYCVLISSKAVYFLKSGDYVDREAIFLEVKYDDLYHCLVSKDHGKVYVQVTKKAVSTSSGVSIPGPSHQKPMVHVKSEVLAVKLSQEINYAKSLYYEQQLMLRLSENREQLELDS
UniProt Q8TF74: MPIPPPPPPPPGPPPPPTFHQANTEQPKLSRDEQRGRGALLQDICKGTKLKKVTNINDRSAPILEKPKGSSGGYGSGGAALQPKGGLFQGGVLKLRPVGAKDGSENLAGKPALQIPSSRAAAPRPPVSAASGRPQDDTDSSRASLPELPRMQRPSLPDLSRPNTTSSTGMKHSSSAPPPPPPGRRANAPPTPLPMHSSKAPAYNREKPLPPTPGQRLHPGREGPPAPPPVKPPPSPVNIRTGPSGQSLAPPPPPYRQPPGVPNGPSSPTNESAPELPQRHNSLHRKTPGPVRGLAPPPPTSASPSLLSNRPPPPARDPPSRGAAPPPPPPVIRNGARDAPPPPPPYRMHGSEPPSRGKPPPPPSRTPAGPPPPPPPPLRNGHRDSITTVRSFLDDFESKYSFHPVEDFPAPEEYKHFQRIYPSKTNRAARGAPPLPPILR
UniProt Q8IWB7: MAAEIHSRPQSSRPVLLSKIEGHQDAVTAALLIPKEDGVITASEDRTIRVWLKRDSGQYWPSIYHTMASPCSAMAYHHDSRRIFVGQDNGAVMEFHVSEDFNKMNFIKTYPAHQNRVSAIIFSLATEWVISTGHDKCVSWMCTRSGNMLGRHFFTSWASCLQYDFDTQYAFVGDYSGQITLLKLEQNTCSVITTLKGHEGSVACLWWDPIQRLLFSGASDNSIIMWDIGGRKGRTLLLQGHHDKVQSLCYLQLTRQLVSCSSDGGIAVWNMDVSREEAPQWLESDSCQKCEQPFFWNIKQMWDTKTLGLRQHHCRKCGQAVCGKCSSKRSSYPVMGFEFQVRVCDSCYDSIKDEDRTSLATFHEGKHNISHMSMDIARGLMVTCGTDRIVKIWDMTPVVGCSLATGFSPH
UniProt Q9H6Y2: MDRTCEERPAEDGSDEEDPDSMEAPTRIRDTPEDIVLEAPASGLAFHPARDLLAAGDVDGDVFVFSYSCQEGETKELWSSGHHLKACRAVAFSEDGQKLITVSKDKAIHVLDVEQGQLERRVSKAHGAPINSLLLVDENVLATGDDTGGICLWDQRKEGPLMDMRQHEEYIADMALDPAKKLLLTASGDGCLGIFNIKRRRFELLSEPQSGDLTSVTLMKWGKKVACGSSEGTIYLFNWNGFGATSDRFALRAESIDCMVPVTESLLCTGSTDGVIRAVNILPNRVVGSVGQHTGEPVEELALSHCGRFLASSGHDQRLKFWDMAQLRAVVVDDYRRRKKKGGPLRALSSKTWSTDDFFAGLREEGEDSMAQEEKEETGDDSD
UniProt Q8N9V3: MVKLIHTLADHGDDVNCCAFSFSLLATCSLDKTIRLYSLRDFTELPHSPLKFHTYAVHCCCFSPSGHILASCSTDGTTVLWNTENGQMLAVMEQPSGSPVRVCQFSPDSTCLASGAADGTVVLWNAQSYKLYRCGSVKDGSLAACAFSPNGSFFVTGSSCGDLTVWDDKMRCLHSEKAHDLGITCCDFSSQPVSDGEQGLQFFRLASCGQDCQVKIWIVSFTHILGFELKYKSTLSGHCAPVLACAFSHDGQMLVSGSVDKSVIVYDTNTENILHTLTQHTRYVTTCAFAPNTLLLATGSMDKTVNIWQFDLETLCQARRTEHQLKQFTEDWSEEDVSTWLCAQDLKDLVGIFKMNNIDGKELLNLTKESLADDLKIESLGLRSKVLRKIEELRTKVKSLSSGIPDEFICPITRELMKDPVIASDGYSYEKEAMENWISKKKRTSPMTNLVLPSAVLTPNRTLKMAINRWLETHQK

What was measured:
Test in all cases: log2 fold change, soluble protein after heating vs DMSO (PISA); higher = thermal stabilisation; K562 cells, 10 uM, 30 min; active = over 0.2 and 3.5 SD of the protein, either way, in both replicates (recomputed)
[1] = compound: CS(=O)(=O)c1ccc(-c2cnc(N)c(C(=O)Nc3ccccc3)n2)cc1
Procedure, shortened: (§1)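 K562 cells (2×10^6 cells/mL) were treated with 10 μM compound for 30 min, and aliquots were heated for 3 min over 48°C-58°C. Pooled aliquots were extracted in PBS with 0.5% NP-40 at 4°C, and the supernatant after 21,000xg for 90 min was measured by TMTpro 16plex LC-MS/MS with channel sums equalised. Reported thermal stability, relative to control samples and from duplicates, is a log2 fold change.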

crizotinib = compound: C[C@@H](Oc1cc(-c2cnn(C3CCNCC3)c2)cnc1N)c1c(Cl)ccc(F)c1Cl [crizotinib]
Procedure, shortened: as §1

[2] = compound: C[C@@H]1COCCN1C2=NC(=NC(=C2)C3(CC3)S(=O)(=O)C)C4=C5C=CNC5=CC=C4
Procedure, shortened: as §1

[3] = compound: C[C@H](C1=CC=C(C=C1)C(=O)NC2=C3C=CNC3=NC=C2)N
Procedure, shortened: as §1

duvelisib = compound: C[C@H](Nc1ncnc2nc[nH]c12)c1cc2cccc(Cl)c2c(=O)n1-c1ccccc1 [duvelisib]
Procedure, shortened: as §1

gandotinib = compound: Cc1cc(Nc2cc(CN3CCOCC3)c3nc(C)c(Cc4ccc(Cl)cc4F)n3n2)n[nH]1 [gandotinib]
Procedure, shortened: as §1

tozasertib = compound: Cc1cc(Nc2cc(N3CCN(C)CC3)nc(Sc3ccc(NC(=O)C4CC4)cc3)n2)n[nH]1 [tozasertib]
Procedure, shortened: as §1

[4] = compound: Cc1cc(SCc2sc(-c3ccc(C(F)(F)F)cc3)nc2C)ccc1OCC(=O)O
Procedure, shortened: as §1

doramapimod = compound: Cc1ccc(-n2nc(C(C)(C)C)cc2NC(=O)Nc2ccc(OCCN3CCOCC3)c3ccccc23)cc1 [doramapimod]
Procedure, shortened: as §1

ispinesib = compound: Cc1ccc(C(=O)N(CCCN)[C@@H](c2nc3cc(Cl)ccc3c(=O)n2Cc2ccccc2)C(C)C)cc1 [ispinesib]
Procedure, shortened: as §1

bafetinib = compound: Cc1ccc(NC(=O)c2ccc(CN3CC[C@H](N(C)C)C3)c(C(F)(F)F)c2)cc1Nc1nccc(-c2cncnc2)n1 [bafetinib]
Procedure, shortened: as §1

[5] = compound: Cc1cccc(CC(=O)N2CCc3c2ccc(-c2cn(C)c4ncnc(N)c24)c3F)n1
Procedure, shortened: as §1

nilotinib = compound: Cc1cn(-c2cc(NC(=O)c3ccc(C)c(Nc4nccc(-c5cccnc5)n4)c3)cc(C(F)(F)F)c2)cn1 [nilotinib]
Procedure, shortened: as §1

[6] = compound: Cc1nc(Nc2n[nH]c3c2CN(C(=O)N[C@H](CN(C)C)c2ccccc2)C3(C)C)c2sccc2n1
Procedure, shortened: as §1

dasatinib = compound: Cc1nc(Nc2ncc(C(=O)Nc3c(C)cccc3Cl)s2)cc(N2CCN(CCO)CC2)n1 [dasatinib]
Procedure, shortened: as §1

[7] = compound: Cc1ncc(-c2ccnc(Nc3ccc(S(C)(=O)=O)cc3)n2)n1C(C)C
Procedure, shortened: as §1

[8] = compound: Cn1cc(-c2ccc3c(c2)CCN3C(=O)Cc2cccc(C(F)(F)F)c2)c2c(N)ncnc21
Procedure, shortened: as §1

[9] = compound: Cn1cc(-c2ccc3nnc(C(F)(F)c4ccc5ncccc5c4)n3n2)cn1
Procedure, shortened: as §1

tipifarnib = compound: Cn1cncc1[C@@](N)(c1ccc(Cl)cc1)c1ccc2c(c1)c(-c1cccc(Cl)c1)cc(=O)n2C [tipifarnib]
Procedure, shortened: as §1

mubritinib = compound: FC(F)(F)c1ccc(/C=C/c2nc(COc3ccc(CCCCn4ccnn4)cc3)co2)cc1 [mubritinib]
Procedure, shortened: as §1

Measured: log2 fold change

VPS13D (UniProt Q5THJ4)
inactive: [1] 0.114 | crizotinib -0.162 | [2] -0.053 | [3] 0.252 | duvelisib -0.023 | gandotinib -0.16 | tozasertib -0.037 | [4] 0.01 | doramapimod 0.142 | ispinesib -0.258 | bafetinib 0.052 | [5] -0.042 | nilotinib -0.014 | [6] 0.017 | dasatinib 0.009 | [7] -0.003 | [8] 0.048 | [9] -0.125 | tipifarnib -0.002 | mubritinib 0.028

WDR45B (UniProt Q5MNZ6)
inactive: [1] -0.04 | crizotinib -0.017 | [2] -0.05 | [3] -0.002 | duvelisib -0.047 | gandotinib 0.035 | tozasertib -0.021 | [4] -0.001 | doramapimod -0.006 | ispinesib -0.012 | bafetinib -0.031 | [5] 0.046 | nilotinib 0.01 | [6] -0.012 | dasatinib -0.11 | [7] -0.023 | [8] 0.017 | [9] 0.002 | tipifarnib 0.036 | mubritinib -0.005

VPS26A (UniProt O75436)
inactive: [1] 0.001 | crizotinib -0.066 | [2] 0.001 | [3] -0.076 | duvelisib 0.009 | gandotinib -0.059 | tozasertib 0.007 | [4] 0.059 | doramapimod 0.002 | ispinesib -0.003 | bafetinib 0.066 | [5] 0.076 | nilotinib -0.04 | [6] 0.049 | dasatinib -0.043 | [7] -0.023 | [8] 0.047 | [9] 0.005 | tipifarnib -0.04 | mubritinib 0.042

WIPF2 (UniProt Q8TF74)
inactive: [1] 0.021 | crizotinib -0.005 | [2] 0.04 | [3] -0.06 | duvelisib 0.01 | gandotinib -0.027 | tozasertib -0.051 | [4] -0.022 | doramapimod -0.012 | ispinesib 0.007 | bafetinib -0.056 | [5] -0.021 | nilotinib 0.017 | [6] -0.031 | dasatinib -0.021 | [7] -0.013 | [8] 0.003 | [9] 0.002 | tipifarnib 0.063 | mubritinib 0.042

VDAC3 (UniProt Q9Y277)
inactive: [1] 0.009 | crizotinib 0.065 | [2] 0.012 | [3] -0.074 | duvelisib 0.006 | gandotinib -0.02 | tozasertib -0.026 | [4] -0.022 | doramapimod -0.012 | ispinesib -0.005 | bafetinib -0.049 | [5] -0.044 | nilotinib -0.009 | [6] 0.053 | dasatinib 0.047 | [7] -0.006 | [8] 0.016 | [9] -0.012 | tipifarnib -0.033 | mubritinib 0.021

WDR5 (UniProt P61964)
inactive: [1] -0.082 | crizotinib -0.006 | [2] -0.207 | [3] 0.138 | duvelisib -0.072 | gandotinib 0.082 | tozasertib 0.017 | [4] 0 | doramapimod 0.024 | ispinesib -0.051 | bafetinib 0.088 | [5] -0.108 | nilotinib -0.022 | [6] 0.063 | dasatinib 0.118 | [7] -0.022 | [8] -0.153 | [9] -0.057 | tipifarnib 0.052 | mubritinib -0.15

WDR26, A0A499FIZ0
inactive: [1] -0.011 | crizotinib 0.074 | [2] 0.036 | [3] 0.03 | duvelisib 0 | gandotinib 0 | tozasertib 0.079 | [4] 0.002 | doramapimod 0.029 | ispinesib 0.018 | bafetinib -0.007 | [5] -0.002 | nilotinib -0.034 | [6] -0.031 | dasatinib 0.018 | [7] -0.007 | [8] -0.1 | [9] 0.007 | tipifarnib 0.054 | mubritinib -0.02

WDFY1 (UniProt Q8IWB7)
inactive: [1] 0.022 | crizotinib 0.019 | [2] 0.052 | [3] -0.038 | duvelisib -0.047 | gandotinib 0.026 | tozasertib -0.029 | [4] 0 | doramapimod -0.027 | ispinesib -0.101 | bafetinib -0.115 | [5] -0.02 | nilotinib -0.012 | [6] -0.004 | dasatinib 0.048 | [7] -0.022 | [8] 0.017 | [9] 0.045 | tipifarnib -0.021 | mubritinib 0.065

Pulled one by one from the entries so far (two):
WDFY1 (UniProt Q8IWB7)
inactive: [1] 0.022 | crizotinib 0.019 | [2] 0.052 | [3] -0.038 | duvelisib -0.047 | gandotinib 0.026 | tozasertib -0.029 | [4] 0 | doramapimod -0.027 | ispinesib -0.101 | bafetinib -0.115 | [5] -0.02 | nilotinib -0.012 | [6] -0.004 | dasatinib 0.048 | [7] -0.022 | [8] 0.017 | [9] 0.045 | tipifarnib -0.021 | mubritinib 0.065

WIPF2 (UniProt Q8TF74)
inactive: [1] 0.021 | crizotinib -0.005 | [2] 0.04 | [3] -0.06 | duvelisib 0.01 | gandotinib -0.027 | tozasertib -0.051 | [4] -0.022 | doramapimod -0.012 | ispinesib 0.007 | bafetinib -0.056 | [5] -0.021 | nilotinib 0.017 | [6] -0.031 | dasatinib -0.021 | [7] -0.013 | [8] 0.003 | [9] 0.002 | tipifarnib 0.063 | mubritinib 0.042

Continuation.

VPS45 (UniProt Q9NRW7)
inactive: [1] 0.045 | crizotinib -0.11 | [2] 0.023 | [3] 0.034 | duvelisib -0.013 | gandotinib -0.082 | tozasertib -0.063 | [4] 0.149 | doramapimod -0.026 | ispinesib -0.174 | bafetinib -0.048 | [5] 0.062 | nilotinib -0.086 | [6] -0.091 | dasatinib -0.123 | [7] 0.046 | [8] 0.038 | [9] 0.103 | tipifarnib -0.013 | mubritinib 0.028

WDR55 (UniProt Q9H6Y2)
inactive: [1] -0.004 | crizotinib 0.105 | [2] -0.009 | [3] 0.063 | duvelisib 0.064 | gandotinib 0.014 | tozasertib 0.013 | [4] -0.03 | doramapimod -0.03 | ispinesib 0.061 | bafetinib -0.035 | [5] -0.109 | nilotinib -0.034 | [6] 0.007 | dasatinib 0 | [7] 0.005 | [8] -0.011 | [9] -0.029 | tipifarnib 0.074 | mubritinib 0.014

VPS36 (UniProt Q86VN1)
inactive: [1] -0.044 | crizotinib -0.028 | [2] 0.055 | [3] -0.038 | duvelisib 0.027 | gandotinib -0.104 | tozasertib -0.002 | [4] -0.014 | doramapimod 0.071 | ispinesib -0.015 | bafetinib 0.018 | [5] 0.031 | nilotinib -0.039 | [6] 0.015 | dasatinib -0.042 | [7] -0.009 | [8] 0.036 | [9] 0.002 | tipifarnib -0.047 | mubritinib 0.026

WDR89 (UniProt Q96FK6)
inactive: [1] 0.009 | crizotinib 0.033 | [2] 0.042 | [3] -0.004 | duvelisib 0.031 | gandotinib -0.105 | tozasertib -0.04 | [4] -0.019 | doramapimod 0 | ispinesib 0.026 | bafetinib -0.016 | [5] -0.001 | nilotinib 0.024 | [6] -0.019 | dasatinib 0.058 | [7] -0.005 | [8] 0.015 | [9] 0.001 | tipifarnib 0.024 | mubritinib 0.046

WIPF3 (UniProt A6NGB9)
inactive: [1] 0.045 | crizotinib -0.13 | [2] 0.022 | [3] 0.044 | duvelisib -0.046 | gandotinib -0.21 | tozasertib 0.027 | [4] -0.091 | doramapimod -0.011 | ispinesib 0.069 | bafetinib -0.042 | [5] 0.075 | nilotinib 0.009 | [6] 0.005 | dasatinib 0.232 | [7] 0.088 | [8] 0.004 | [9] -0.097 | tipifarnib 0.023 | mubritinib 0.046

WDSUB1 (UniProt Q8N9V3)
inactive: [1] 0.082 | crizotinib 0.039 | [2] 0.048 | [3] -0.095 | duvelisib 0.121 | gandotinib 0.011 | tozasertib -0.022 | [4] -0.009 | doramapimod -0.023 | ispinesib 0.009 | bafetinib -0.048 | [5] -0.036 | nilotinib -0.025 | [6] -0.025 | dasatinib -0.016 | [7] 0.012 | [8] 0.047 | [9] 0.065 | tipifarnib -0.023 | mubritinib 0.048

WDR1 (UniProt O75083)
inactive: [1] 0.049 | crizotinib 0.01 | [2] 0.075 | [3] -0.059 | duvelisib 0.047 | gandotinib -0.004 | tozasertib -0.009 | [4] 0.038 | doramapimod -0.024 | ispinesib 0.062 | bafetinib 0.006 | [5] 0.002 | nilotinib 0.002 | [6] 0.018 | dasatinib 0.002 | [7] -0.012 | [8] 0.122 | [9] 0.011 | tipifarnib -0.092 | mubritinib 0.093

VDAC2 (UniProt P45880)
inactive: [1] 0.017 | crizotinib 0.027 | [2] -0.009 | [3] -0.05 | duvelisib 0.023 | gandotinib 0.006 | tozasertib -0.014 | [4] -0.026 | doramapimod -0.021 | ispinesib -0.005 | bafetinib -0.038 | [5] -0.022 | nilotinib 0.02 | [6] 0.009 | dasatinib 0.033 | [7] 0 | [8] 0.016 | [9] -0.001 | tipifarnib 0.045 | mubritinib 0.009
